Source: PubChem BioAssay AID540276 (National Center for Advancing Translational Sciences (NCATS), 2011)
The campaign covered roughly 300,000 compounds. About 5,400 (1.8%) were called active. Inconclusive means that the source gave no clear call. Such entries were picked first, then a sample of the others. Calls come from the whole dose curve; tested in HEK293 cells. Potencies of inconclusive entries are doubtful fits and often do not repeat.

Assay: qHTS for inhibitors of binding or entry into cells for Marburg Virus
Conditions: Marburg virus pseudotyped entry inhibition, cell reporter; activity change, negative = inhibition: at 37.8 µM (top of the series) unless noted
% is set by controls: 0 for no effect and ±100 for the full control effect; potency is the fitted concentration of half-maximal effect.

SMILES	Potency	activity change, negative = inhibition
O=C(CC1C(=O)CCCC1=O)c1ccccc1	inconclusive: 5.62 µM [inhibitor, full curve]	
Cc1cccc(-c2cc(C(=O)N/N=C/c3cccnc3)c3ccccc3n2)c1	inconclusive: 10 µM [inhibitor, partial curve, poor fit]	
COc1ccc(OC)c(-c2cc(C(=O)N/N=C/c3ccc(F)cc3)c3ccccc3n2)c1	inconclusive: 5.62 µM [activator, single point]	
COc1ccc(S(=O)(=O)N2CCCC2CNC(=O)C(=O)NCc2ccccc2)cc1 (stereo not drawn)	inconclusive: 35.5 µM [inhibitor, single point]	
CCOC(=O)c1ccc(NC(=O)C2CCCN(S(=O)(=O)c3ccc(F)cc3)C2)cc1 (stereo not drawn)	inconclusive: 29.1 µM [inhibitor, single point]	
O=S(=O)(c1ccccc1)c1nc(-c2ccc(F)cc2)oc1NCc1ccccc1	inconclusive: 3.55 µM [inhibitor, full curve, poor fit]	
O=C(COc1ccccc1F)Nc1ccc2nc(SCC(=O)N3CCOCC3)sc2c1	inconclusive: 35.5 µM [inhibitor, single point]	
O=C(Nc1cc2c(cc1C(=O)O)OCCCO2)c1ccc(F)cc1F		inactive: 2.82% [at 46.1 µM]
Cc1cc(NC(=S)N(CCCN2CCN(C)CC2)Cc2ccco2)ccc1Cl	inconclusive: 11.2 µM [inhibitor, single point]	
COc1cc(NC(=O)c2ccccc2-c2ccccc2)cc(OC)c1	inconclusive: 12.6 µM [inhibitor, single point]	
C/[N+]([O-])=C\C1C(=O)CCCC1=O		inactive: 3.11% [at 46.1 µM]
Cc1cc(C)nc(SCC(=O)c2ccc3c(c2)OCCO3)n1		inactive: -2.06%
Cc1cc(-c2nnc(-c3cc4ccccc4oc3=O)o2)c(C)n1-c1ccccc1		inactive: 7.76%
COc1ccc(C(=O)/C=C/c2cccs2)c(OC(=O)c2cccc([N+](=O)[O-])c2)c1		inactive: -0.812%
CC(=O)Nc1cccc(C(=O)OCC(=O)N2CCC(c3ccccc3)=N2)c1	inconclusive: 5.01 µM [activator, single point]	
Cc1cccc(NC(=O)c2oc3c(c2C)C(=O)CC(C)(C)C3)n1	inconclusive: 6.51 µM [inhibitor, single point]	
COc1ccc(NC(=O)c2c(C)nn(-c3ccccc3)c2Cl)cc1	inconclusive: 7.94 µM [activator, partial curve, poor fit]	
CCOc1ccccc1C(=O)Nc1cccc2cccnc12	inconclusive: 15.8 µM [activator, single point]	
CC1CCCCN1S(=O)(=O)c1ccc(-n2cnnn2)cc1 (stereo not drawn)		inactive: -2.14% [at 46.1 µM]
N#CC1=C(N)Oc2cc(N)ccc2C1c1ccccc1 (stereo not drawn)	inconclusive: 20 µM [inhibitor, partial curve, poor fit]	
Cc1ccc(NCc2nnc(SCC(=O)N3CCCCC3)n2CC2CCCO2)c(C)c1 (stereo not drawn)	inconclusive: 0.73 µM [inhibitor, full curve, poor fit]	
c1ccc(CCN2CCN(c3ncnc4c3cnn4-c3ccccc3)CC2)cc1	inconclusive: 9.2 µM [inhibitor, partial curve, poor fit]	

SMILES	Potency	activity change, negative = inhibition
Nc1ccc(C(=O)OCC(=O)N2c3ccccc3Sc3ccccc32)cc1[N+](=O)[O-]	active: 20.6 µM	
Cc1sc2ncnc(NCCc3ccc(S(N)(=O)=O)cc3)c2c1C	inconclusive: 2.82 µM [inhibitor, full curve]	
COc1ccc(-c2cn3cc(C)ccc3n2)cc1F	inconclusive: 5.62 µM [inhibitor, full curve, poor fit]	
O=C(CN1CCN(S(=O)(=O)c2ccc(Cl)cc2)CC1)NC(=O)NC1CCCCC1		inactive: 0.583%
CC1=C(C(=O)N2CCCCC2)C(c2ccc(Cl)cc2)n2c(nc3ccccc32)N1 (stereo not drawn)	inconclusive: 4.47 µM [inhibitor, full curve, poor fit]	
CC1CCN(S(=O)(=O)c2ccc(C(=O)Nc3ccccn3)cc2)CC1	inconclusive: 7.08 µM [activator, partial curve, poor fit]	
CCC(C)NC(=O)c1cc(CC(C)C)on1 (stereo not drawn)		inactive: 33.8%
Cc1ccc(N(CC(=O)N2CCCC2)S(C)(=O)=O)c(C)c1		inactive: 13.6% [at 46.1 µM]
Cc1ccc(OCC(=O)O/N=C(\N)c2ccccn2)cc1C		inactive: 4.22% [at 14.2 µM]
C=CCNc1ncnc2c1cnn2-c1ccc(Cl)cc1	inconclusive: 0.731 µM [activator, partial curve, poor fit]	
COc1ccc(CCNC(=O)c2c(C)nn(CC(C)C)c2Cl)cc1OC	inconclusive: 28.2 µM [activator, single point]	
Cc1ccccc1N1C(=O)C(Cl)=C(N2CCCCCC2)C1=O	inconclusive: 9.2 µM [inhibitor, partial curve, poor fit]	
CCCCN(CCCC)S(=O)(=O)c1ccc(NC(=O)Cc2cccs2)cc1	inconclusive: 29.1 µM [inhibitor, single point]	
COc1c(C=O)c2c(c(OC)c1OC)-c1ccc(OC)c(=O)cc1C(NC(C)=O)CC2 (stereo not drawn)		inactive: -3.46%
CNC(=S)N/N=C/c1c(C)c(C(=O)c2ccc(F)cc2)n2ccccc12	inconclusive: 35.5 µM [inhibitor, single point]	
CC[C@H](C)N(C)C(=O)c1cc2ccccc2c(-c2ccccc2Cl)n1	inconclusive: 6.51 µM [inhibitor, single point]	
Cc1cc(/C=C2\C(=N)N3N=C(C(C)C)SC3=NC2=O)c(C)n1Cc1ccccc1		inactive: -3.38% [at 46.1 µM]
S=C(Nc1ccccc1)Nc1nc2ccccc2n1CCOc1ccc(Br)cc1	inconclusive: 5.62 µM [activator, single point]	
CN(CC(=O)Nc1cccc(F)c1)C(=O)CCC1CCCCC1	inconclusive: 7.08 µM [activator, full curve, poor fit]	
Cc1cnc(NC(=O)Cc2ccccc2F)s1	inconclusive: 3.16 µM [activator, single point]	
O=c1[nH]c(CN2CCN(c3ccccc3)CC2)nc2scc(-c3ccccc3)c12	inconclusive: 3.55 µM [inhibitor, full curve, poor fit]	

Quoted from the listing:
Potency with `CC1=C(C(=O)N2CCCCC2)C(c2ccc(Cl)cc2)n2c(nc3ccccc32)N1` (stereo not drawn) is entered as inconclusive: 4.47 µM [inhibitor, full curve, poor fit]
Potency with `Cc1cnc(NC(=O)Cc2ccccc2F)s1` is entered as inconclusive: 3.16 µM [activator, single point]
